Measurements reported in the supplement of paper PMC10849652.
This is one part of the list.

Sequences of proteins named here, by UniProt entry; tags and fusion partners are left off. A change or cut given only in a name is not applied to a line headed by its entry.
UniProt O00716: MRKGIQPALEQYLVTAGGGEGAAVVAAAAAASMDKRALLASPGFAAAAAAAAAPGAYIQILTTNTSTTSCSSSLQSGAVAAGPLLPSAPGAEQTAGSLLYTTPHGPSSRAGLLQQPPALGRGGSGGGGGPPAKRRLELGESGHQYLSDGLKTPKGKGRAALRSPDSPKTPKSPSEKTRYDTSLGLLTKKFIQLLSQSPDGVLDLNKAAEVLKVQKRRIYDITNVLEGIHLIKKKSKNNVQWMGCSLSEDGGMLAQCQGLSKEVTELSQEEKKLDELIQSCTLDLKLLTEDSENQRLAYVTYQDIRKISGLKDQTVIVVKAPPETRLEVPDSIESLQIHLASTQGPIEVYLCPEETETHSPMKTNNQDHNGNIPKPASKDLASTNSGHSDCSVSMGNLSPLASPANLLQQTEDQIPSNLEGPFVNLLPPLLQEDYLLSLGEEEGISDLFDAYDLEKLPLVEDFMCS
UniProt Q13409, whole entry, looked up: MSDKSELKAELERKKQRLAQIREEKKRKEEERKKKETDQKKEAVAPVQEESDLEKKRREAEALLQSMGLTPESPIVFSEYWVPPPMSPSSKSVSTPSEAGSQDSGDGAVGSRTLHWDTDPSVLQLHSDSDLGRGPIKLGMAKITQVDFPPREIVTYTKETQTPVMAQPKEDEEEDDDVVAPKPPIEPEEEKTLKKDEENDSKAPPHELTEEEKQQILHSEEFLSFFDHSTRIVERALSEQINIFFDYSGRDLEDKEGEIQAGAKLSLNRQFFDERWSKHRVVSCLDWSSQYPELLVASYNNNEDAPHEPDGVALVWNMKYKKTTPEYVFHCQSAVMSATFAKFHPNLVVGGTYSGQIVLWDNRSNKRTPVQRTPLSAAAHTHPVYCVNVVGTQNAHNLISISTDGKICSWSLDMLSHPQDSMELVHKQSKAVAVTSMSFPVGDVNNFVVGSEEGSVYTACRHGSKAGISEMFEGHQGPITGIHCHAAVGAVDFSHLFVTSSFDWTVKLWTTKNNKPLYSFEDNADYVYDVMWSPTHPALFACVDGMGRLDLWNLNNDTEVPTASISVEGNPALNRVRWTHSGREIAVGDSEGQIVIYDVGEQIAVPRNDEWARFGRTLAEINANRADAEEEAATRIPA
UniProt O95905: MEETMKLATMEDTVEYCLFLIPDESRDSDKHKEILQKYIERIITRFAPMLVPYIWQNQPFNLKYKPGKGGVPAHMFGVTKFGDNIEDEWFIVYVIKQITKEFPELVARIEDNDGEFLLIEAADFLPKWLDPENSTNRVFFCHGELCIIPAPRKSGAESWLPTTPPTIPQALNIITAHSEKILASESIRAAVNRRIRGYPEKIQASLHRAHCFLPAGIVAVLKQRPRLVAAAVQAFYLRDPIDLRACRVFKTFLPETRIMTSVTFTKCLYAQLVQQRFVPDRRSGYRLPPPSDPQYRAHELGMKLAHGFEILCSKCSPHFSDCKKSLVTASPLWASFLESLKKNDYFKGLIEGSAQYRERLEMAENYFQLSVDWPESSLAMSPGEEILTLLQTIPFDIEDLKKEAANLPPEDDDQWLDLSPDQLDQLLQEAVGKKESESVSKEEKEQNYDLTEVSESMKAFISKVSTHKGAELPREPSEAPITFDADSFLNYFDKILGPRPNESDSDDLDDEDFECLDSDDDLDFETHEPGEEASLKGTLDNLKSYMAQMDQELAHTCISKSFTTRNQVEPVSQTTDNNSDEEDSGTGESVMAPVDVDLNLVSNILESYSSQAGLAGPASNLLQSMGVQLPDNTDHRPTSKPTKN
UniProt Q56P03: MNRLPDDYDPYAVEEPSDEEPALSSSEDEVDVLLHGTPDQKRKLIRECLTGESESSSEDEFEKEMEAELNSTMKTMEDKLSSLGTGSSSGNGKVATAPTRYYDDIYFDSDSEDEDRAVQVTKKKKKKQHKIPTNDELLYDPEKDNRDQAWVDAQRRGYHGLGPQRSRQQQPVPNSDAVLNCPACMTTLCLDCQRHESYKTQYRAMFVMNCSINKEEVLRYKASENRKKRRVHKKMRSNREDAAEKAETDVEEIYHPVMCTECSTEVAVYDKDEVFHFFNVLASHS
UniProt Q5QJE6: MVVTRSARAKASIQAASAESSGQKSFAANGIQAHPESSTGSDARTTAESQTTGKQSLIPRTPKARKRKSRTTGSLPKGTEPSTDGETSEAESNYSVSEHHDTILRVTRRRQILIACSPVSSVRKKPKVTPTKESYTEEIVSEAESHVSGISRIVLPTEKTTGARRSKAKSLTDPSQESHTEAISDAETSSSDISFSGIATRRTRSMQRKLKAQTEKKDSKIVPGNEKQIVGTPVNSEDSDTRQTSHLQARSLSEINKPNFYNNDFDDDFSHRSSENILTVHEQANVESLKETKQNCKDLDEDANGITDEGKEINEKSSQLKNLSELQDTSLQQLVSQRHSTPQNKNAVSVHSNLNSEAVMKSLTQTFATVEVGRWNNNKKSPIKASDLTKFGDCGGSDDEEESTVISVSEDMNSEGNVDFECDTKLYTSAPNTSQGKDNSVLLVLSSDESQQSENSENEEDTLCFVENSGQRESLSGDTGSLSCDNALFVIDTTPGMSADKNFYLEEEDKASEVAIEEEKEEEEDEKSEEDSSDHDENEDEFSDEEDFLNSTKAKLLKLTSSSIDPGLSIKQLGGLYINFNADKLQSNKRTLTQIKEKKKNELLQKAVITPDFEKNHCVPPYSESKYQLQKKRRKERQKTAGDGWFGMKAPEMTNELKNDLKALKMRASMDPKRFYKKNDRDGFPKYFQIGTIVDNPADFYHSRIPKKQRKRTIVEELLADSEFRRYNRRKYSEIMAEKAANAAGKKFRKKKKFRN
UniProt Q9H410: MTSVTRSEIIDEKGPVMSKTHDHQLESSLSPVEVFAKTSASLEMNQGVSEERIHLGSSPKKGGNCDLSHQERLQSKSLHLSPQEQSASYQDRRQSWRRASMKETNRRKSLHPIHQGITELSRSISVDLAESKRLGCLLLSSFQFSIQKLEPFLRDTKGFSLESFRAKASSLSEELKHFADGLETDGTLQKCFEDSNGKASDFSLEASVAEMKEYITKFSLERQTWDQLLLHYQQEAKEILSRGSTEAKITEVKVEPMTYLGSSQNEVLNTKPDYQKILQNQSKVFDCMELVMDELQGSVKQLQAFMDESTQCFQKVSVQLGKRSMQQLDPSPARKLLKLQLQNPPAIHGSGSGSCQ
UniProt Q9H1X3: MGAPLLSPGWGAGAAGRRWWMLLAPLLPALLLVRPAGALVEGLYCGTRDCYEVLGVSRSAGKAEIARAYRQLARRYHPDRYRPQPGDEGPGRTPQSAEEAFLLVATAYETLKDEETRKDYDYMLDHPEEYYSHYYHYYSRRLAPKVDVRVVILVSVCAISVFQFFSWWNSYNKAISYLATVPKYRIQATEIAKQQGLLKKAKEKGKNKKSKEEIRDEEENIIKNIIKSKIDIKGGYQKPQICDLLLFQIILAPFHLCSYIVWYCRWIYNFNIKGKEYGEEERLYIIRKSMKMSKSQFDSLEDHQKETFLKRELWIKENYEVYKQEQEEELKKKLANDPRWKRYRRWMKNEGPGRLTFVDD
UniProt Q96FN9: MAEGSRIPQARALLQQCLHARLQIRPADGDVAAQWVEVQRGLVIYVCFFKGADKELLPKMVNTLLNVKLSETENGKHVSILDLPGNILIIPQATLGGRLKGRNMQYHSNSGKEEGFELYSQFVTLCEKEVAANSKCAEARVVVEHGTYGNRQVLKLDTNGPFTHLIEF
UniProt P63172, whole entry, looked up: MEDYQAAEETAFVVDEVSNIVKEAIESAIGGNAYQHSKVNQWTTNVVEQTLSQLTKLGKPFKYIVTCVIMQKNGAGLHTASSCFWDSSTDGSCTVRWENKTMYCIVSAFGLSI
UniProt Q8NBA8: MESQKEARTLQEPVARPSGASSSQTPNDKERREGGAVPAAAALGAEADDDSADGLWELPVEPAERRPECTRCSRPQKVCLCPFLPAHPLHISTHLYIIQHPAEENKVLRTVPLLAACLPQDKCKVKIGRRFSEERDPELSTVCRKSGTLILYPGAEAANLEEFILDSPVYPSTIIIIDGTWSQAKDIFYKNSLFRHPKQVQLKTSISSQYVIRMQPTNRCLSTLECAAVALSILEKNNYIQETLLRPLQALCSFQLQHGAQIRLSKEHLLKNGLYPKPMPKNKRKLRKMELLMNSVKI
UniProt Q96FX2: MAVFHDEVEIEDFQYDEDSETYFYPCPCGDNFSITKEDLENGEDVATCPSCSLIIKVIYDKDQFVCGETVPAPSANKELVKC
UniProt Q6P3W2: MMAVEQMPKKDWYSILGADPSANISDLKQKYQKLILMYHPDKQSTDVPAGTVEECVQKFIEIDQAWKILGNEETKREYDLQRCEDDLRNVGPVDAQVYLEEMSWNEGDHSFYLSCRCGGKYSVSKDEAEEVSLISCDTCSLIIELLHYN
UniProt Q96LL9: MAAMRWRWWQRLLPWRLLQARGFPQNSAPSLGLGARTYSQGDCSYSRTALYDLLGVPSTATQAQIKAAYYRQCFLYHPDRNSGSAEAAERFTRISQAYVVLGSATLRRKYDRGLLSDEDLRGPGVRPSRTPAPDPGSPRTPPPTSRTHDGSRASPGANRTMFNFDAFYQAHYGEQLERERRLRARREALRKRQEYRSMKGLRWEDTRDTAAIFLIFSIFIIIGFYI
UniProt Q96DC8: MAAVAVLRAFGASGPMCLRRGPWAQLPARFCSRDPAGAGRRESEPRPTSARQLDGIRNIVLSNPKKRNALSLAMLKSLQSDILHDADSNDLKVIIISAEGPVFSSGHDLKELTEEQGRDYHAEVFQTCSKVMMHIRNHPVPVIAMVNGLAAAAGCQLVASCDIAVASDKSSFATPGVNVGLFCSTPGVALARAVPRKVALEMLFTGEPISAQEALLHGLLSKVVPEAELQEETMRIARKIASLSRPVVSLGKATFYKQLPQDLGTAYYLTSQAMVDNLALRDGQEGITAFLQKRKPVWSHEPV
UniProt Q66K89: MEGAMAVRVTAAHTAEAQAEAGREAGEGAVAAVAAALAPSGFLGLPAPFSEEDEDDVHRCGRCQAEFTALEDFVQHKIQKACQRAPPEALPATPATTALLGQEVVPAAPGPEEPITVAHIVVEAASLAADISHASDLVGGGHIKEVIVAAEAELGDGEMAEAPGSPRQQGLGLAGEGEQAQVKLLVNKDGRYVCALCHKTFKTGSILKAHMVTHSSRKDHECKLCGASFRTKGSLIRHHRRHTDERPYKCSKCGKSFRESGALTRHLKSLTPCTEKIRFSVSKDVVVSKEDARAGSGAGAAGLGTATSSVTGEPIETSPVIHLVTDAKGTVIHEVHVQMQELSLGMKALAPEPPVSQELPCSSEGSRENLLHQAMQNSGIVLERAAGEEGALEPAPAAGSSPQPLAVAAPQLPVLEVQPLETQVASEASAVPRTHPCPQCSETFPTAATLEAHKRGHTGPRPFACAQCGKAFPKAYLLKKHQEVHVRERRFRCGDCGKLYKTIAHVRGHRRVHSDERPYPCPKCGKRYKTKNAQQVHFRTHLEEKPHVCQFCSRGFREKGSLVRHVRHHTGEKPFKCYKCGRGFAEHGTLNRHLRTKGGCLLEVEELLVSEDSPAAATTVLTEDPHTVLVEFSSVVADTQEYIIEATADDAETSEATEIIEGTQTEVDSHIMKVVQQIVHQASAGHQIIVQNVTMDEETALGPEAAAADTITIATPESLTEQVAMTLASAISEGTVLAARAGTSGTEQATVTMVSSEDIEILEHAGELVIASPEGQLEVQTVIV
UniProt Q4LDG9: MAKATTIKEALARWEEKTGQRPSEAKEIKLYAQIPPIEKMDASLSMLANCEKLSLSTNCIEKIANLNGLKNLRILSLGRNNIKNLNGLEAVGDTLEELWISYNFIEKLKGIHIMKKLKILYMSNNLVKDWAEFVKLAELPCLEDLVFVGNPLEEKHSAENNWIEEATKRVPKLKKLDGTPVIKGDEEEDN
UniProt Q6NUT2: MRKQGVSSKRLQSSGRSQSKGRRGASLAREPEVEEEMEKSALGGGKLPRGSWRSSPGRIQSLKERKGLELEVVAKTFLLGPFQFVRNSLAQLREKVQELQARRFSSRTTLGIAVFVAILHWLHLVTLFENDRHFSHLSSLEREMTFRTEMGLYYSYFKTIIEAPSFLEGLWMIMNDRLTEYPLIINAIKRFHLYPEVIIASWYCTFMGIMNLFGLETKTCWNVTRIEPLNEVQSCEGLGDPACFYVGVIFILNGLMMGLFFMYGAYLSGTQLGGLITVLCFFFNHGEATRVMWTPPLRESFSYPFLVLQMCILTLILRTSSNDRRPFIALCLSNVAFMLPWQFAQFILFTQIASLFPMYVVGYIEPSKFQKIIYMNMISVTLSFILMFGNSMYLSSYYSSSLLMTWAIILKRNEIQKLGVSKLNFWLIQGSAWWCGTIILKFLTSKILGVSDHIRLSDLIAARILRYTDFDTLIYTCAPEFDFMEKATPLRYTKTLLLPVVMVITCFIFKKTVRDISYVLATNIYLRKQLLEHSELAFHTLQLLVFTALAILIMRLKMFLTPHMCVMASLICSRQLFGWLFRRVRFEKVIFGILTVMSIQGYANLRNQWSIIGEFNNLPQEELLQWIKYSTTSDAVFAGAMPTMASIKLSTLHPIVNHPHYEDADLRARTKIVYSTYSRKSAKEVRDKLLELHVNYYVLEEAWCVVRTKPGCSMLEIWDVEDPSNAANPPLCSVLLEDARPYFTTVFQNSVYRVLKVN

compound: CCN(CC)Cc1ccc2cc(COC(=O)Nc3ccc(C(=O)NO)cc3)ccc2c1 [givinostat]; assay: log2 fold change, soluble protein after heating vs DMSO (PISA); higher = thermal stabilisation; K562 cells, 10 uM, 30 min; active = over 0.2 and 3.5 SD of the protein, either way, in both replicates (recomputed)
Summary of the method: (§1)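 K562 cells at 2×10^6 cells/mL were exposed to 10 μM compound for 30 min, then aliquots were heated for 3 min across 48°C-58°C, pooled, and extracted in PBS containing 0.5% NP-40 at 4°C. The supernatant after 21,000xg for 90 min was taken as soluble protein and measured by TMTpro 16plex LC-MS/MS with channel sums equalised. Thermal stability is reported relative to control samples, with values from duplicates. Fold changes are given on a log2 scale.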

log2 fold change, inactive:
E2F3 (UniProt O00716) 0.053
DYNC1I2 isoform 2 (UniProt Q13409) 0.044
ECD isoform 3 (UniProt O95905) 0.058
EAPP (UniProt Q56P03) 0.074
DNTTIP2 (UniProt Q5QJE6) 0.057
DOCK8 (UniProt Q8NF50) 0.245
DOLPP1 (UniProt Q86YN1) -0.027
DNPEP (UniProt B9ZVU2) 0.036
DSN1 (UniProt Q9H410) 0.053
DNAJC25 (UniProt Q9H1X3) 0.059
DTD2 (UniProt Q96FN9) -0.005
DNAJC16 (UniProt Q9Y2G8) 0.025
DNM2 isoform 4 (UniProt P50570) 0.159
DYRK1A isoform 2 (UniProt Q13627) 0.038
DYNLT1 (UniProt P63172) 0.004
DNM1L isoform 2 (UniProt O00429) -0.031
DTWD2 (UniProt Q8NBA8) -0.139
DUSP9 (UniProt Q99956) -0.125
DPH3 (UniProt Q96FX2) 0.046
DOK1 (UniProt Q99704) -0.05
DNAJC24 (UniProt Q6P3W2) 0.07
DPYSL2 (UniProt Q16555) 0.03
DNAJC30 (UniProt Q96LL9) -0.05
ECHDC3 (UniProt Q96DC8) 0.029
DYM (UniProt Q7RTS9) 0.116
DNPEP (UniProt C9JBE1) 0.18

compound: CCN(CCCOc1ccc2c(Nc3cc(CC(=O)Nc4cccc(F)c4)[nH]n3)ncnc2c1)CCOP(=O)(O)O [barasertib]; assay: as above
Summary of the method: as §1

log2 fold change, inactive:
DOP1B (UniProt Q9Y3R5) -0.165
E2F3 (UniProt O00716) -0.146
DYNC1I2 isoform 2 (UniProt Q13409) 0.015
ECD isoform 3 (UniProt O95905) -0.001
E4F1 (UniProt Q66K89) -0.181
DNTTIP2 (UniProt Q5QJE6) -0.062
DOCK8 (UniProt Q8NF50) 0.055
DOLPP1 (UniProt Q86YN1) 0.057
DSN1 (UniProt Q9H410) 0.075
DNAJC25 (UniProt Q9H1X3) -0.03
DNAJC16 (UniProt Q9Y2G8) -0.141
DNM2 isoform 4 (UniProt P50570) 0.013
DYRK1A isoform 2 (UniProt Q13627) 0.004
DYNLT1 (UniProt P63172) -0.015
DNM1L isoform 2 (UniProt O00429) 0.001
DTWD2 (UniProt Q8NBA8) 0.056
DPH3 (UniProt Q96FX2) 0.068
DOK1 (UniProt Q99704) 0.144
DNAJC24 (UniProt Q6P3W2) 0.008
DPYSL2 (UniProt Q16555) 0
ECHDC3 (UniProt Q96DC8) -0.014
DNAL1 (UniProt Q4LDG9) 0.012
DYM (UniProt Q7RTS9) 0.092
DNPEP (UniProt C9JBE1) 0.105
DPY19L2 (UniProt Q6NUT2) 0.045
